In the assay the target is Bunyamwera virus (BUNV) nucleoprotein (N) (Bunyamwera virus) (UniProt P16495). Description: co-IP; BSR-T7/5 cells infected with wt BUNV or rBUNL4V5, labelled with [35S]methionine, lysed in non-denaturing RIPA buffer (50 mM Tris/HCl pH 7.4, 1 % Triton X-100, 300 mM NaCl, 5 mM EDTA); precipitated with anti-N or anti-V5 antibodies on Protein A-agarose; SDS-PAGE.

By UniProt entry, the sequences of proteins in these tests, tags left out.
UniProt P16495: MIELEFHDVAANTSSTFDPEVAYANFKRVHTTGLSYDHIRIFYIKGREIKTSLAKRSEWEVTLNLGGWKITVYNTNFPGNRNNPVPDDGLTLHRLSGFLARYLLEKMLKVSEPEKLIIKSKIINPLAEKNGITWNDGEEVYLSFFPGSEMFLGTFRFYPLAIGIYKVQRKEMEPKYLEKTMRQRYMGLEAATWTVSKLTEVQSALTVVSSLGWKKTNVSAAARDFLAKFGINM
UniProt P20470: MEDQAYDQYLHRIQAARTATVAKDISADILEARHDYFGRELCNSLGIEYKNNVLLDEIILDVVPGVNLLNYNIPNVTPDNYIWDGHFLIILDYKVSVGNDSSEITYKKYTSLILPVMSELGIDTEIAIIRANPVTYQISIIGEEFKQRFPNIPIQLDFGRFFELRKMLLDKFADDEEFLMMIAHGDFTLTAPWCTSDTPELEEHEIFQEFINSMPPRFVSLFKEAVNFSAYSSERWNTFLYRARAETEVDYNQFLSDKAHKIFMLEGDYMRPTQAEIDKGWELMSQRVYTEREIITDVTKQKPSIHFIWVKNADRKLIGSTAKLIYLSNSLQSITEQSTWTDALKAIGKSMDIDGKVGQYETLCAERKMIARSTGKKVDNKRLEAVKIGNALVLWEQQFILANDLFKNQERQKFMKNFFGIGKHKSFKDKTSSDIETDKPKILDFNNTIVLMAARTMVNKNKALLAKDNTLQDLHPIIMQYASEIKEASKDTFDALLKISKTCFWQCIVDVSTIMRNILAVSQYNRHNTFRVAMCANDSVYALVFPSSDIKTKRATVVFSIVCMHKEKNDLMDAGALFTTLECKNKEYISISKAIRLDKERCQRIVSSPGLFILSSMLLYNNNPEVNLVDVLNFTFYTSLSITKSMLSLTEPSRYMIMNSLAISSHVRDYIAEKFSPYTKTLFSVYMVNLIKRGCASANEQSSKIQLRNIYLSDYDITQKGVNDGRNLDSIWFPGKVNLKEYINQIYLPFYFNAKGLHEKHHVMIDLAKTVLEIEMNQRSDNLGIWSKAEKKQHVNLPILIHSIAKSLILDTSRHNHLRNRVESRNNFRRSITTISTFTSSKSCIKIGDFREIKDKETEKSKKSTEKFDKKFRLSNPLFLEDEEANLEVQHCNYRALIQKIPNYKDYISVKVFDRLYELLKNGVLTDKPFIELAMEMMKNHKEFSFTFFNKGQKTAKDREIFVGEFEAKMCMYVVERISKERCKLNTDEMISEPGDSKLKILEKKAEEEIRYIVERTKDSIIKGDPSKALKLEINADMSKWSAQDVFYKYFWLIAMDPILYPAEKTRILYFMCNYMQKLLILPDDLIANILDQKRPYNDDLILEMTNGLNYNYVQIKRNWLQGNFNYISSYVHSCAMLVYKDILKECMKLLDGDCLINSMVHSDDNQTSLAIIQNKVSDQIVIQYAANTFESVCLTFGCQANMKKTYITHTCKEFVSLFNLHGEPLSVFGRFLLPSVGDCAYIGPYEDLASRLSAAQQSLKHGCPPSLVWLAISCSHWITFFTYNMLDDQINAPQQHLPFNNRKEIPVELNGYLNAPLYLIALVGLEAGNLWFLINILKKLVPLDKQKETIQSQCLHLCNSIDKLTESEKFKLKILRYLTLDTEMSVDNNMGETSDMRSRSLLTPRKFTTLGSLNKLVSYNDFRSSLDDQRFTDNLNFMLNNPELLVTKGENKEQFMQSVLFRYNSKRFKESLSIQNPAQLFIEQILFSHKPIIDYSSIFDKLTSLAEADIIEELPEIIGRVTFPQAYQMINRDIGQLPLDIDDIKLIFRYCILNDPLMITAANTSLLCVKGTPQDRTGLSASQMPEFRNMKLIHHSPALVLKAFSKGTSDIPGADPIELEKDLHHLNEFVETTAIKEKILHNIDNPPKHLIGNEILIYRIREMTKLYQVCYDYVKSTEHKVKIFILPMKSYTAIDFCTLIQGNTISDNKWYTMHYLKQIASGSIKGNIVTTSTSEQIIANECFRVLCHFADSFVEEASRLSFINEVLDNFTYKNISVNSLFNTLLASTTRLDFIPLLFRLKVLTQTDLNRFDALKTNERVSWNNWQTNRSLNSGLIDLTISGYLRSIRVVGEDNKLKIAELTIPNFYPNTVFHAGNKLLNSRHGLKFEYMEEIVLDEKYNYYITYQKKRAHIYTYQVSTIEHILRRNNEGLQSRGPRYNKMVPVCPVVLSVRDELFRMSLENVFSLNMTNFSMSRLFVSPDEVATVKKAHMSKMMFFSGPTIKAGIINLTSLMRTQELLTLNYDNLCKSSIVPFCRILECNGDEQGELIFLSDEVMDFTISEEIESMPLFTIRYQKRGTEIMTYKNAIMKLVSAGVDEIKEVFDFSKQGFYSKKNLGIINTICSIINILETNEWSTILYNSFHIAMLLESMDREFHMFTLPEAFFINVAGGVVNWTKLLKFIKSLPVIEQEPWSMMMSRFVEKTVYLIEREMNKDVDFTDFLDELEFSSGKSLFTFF

Results are given in words; binding and its absence hold for the method and conditions named. Binding seen in cells or lysates may run through a third protein. Some results given as binding are weak or reduced against the parent protein; the word gives no strength.

With “Bunyamwera virus (BUNV) L protein, wild type (from UniProt P20470 1-2238)”, the binding result is listed as “binds”.

Values taken from article PMC2885054.
